These are yes or no findings as the source states them, for the method shown. For some assays here: In cells and extracts the contact can be indirect. Some results given as binding are weak or reduced against the parent protein; the word gives no strength.
Assays:
[1] = biological target: EZH2 (human (endogenous in LNCaP-abl and PC3)) (UniProt Q15910); test: ChIP-re-ChIP; LNCaP-abl cells; eluate of the first ChIP diluted and precipitated with the second antibody; qPCR of ERE3 of the NOTCH1 promoter
[2] = biological target: EZH2 (human (endogenous in LNCaP-abl and PC3)) (UniProt Q15910); test: co-IP; endogenous proteins in lysates of LNCaP-abl or PC3 cells treated with 10 nM E2 or DMSO (0.1% v/v); lysis buffer 50 mM Tris pH 8.0, 120 mM NaCl, 0.5% Nonidet P-40; anti-ERα and anti-EZH2 antibodies or control rabbit IgG overnight at 4 °C, protein A beads; washes with 900 mM NaCl; Western blot

Amino acid sequences for entries named in this document (tags omitted).
UniProt Q15910: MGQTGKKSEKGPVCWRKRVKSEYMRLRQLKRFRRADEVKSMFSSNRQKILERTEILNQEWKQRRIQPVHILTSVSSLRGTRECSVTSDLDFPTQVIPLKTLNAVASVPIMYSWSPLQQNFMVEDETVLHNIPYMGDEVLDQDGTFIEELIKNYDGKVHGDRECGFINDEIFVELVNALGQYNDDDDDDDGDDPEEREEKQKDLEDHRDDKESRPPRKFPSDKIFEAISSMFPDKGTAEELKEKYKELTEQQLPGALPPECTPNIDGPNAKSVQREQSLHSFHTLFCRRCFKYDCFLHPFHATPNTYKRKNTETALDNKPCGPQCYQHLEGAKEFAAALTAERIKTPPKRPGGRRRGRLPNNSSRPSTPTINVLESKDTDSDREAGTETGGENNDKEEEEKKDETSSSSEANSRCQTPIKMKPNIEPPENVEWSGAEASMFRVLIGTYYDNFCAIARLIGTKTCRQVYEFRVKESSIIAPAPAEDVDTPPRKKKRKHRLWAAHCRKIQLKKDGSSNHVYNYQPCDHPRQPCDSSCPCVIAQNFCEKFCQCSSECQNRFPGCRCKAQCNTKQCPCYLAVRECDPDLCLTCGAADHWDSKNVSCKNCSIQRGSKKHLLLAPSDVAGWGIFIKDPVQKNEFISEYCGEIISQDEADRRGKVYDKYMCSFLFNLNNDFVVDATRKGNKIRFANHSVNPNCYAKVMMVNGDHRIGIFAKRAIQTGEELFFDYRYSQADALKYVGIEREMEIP
UniProt P03372: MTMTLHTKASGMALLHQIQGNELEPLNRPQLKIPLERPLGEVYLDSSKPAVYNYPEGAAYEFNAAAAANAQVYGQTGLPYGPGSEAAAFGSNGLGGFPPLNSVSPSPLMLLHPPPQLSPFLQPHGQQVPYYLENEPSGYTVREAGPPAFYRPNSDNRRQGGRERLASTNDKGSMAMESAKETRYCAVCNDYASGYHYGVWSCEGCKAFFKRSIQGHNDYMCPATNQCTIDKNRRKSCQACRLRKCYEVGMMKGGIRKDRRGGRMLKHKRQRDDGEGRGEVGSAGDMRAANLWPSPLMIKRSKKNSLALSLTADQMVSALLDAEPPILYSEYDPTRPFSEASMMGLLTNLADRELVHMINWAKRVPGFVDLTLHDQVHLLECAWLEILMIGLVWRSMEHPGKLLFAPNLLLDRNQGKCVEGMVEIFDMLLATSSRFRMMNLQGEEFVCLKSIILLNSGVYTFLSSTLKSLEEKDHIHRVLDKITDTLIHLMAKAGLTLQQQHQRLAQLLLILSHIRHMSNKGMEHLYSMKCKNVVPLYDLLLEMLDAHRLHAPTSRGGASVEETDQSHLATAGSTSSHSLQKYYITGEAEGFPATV

binding [1]: binds
binding [2]: binds
Substance: Estrogen receptor alpha (from UniProt P03372 1-595)

Reference: article PMC6533681
